# Some of the results follow. The main result of the screen is listed elsewhere. These columns were measured beside it and carry no call. The list favours compounds with an active or inconclusive main result. The note in brackets gives the kind of curve behind each potency; many fits are weak.
# Assay: qHTS Assay to Find Inhibitors of Chronic Active B-Cell Receptor Signaling
# Details: ABC-DLBCL IkBa-CBG/CBR reporter, luminescence ratio (green luciferase fused to IkBa over red control in TMD8 lymphoma cells), 4 h
# Outline: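 Doxycycline induced both beetle luciferases in TMD8 lymphoma cells; IKK-driven degradation limits the IkappaBalpha-fused green signal, while red luminescence normalises for cell number and nonspecific effects. Compounds tested up to 46 uM, 4 hrs.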
# [1] = measured here: CBR red luminescence, cell number
# [2] = measured here: IkBa-CBG green luminescence
Compound,AC50 [1],AC50 [2]
CC1(C)N=C(SCC(=O)Nc2ccc(Cl)cc2)C(c2ccc(Cl)cc2)=N1,"16.4 µM [falling, partial curve, poor fit]",
CCC(=O)n1nc(NCc2ccc(OC)c(OC)c2)nc1NCc1ccc(OC)c(OC)c1,"3.66 µM [rising, single point]",
O=C(/C=C/c1ccco1)N1CCN(S(=O)(=O)/C=C/c2ccccc2)CC1,"4.47 µM [rising, partial curve, poor fit]",
CCOc1ccccc1C(=O)Nc1ccccc1O,"16.4 µM [falling, single point]",
c1ccc(CC2CCCNC2)cc1 (centres undefined),"5.62 µM [rising, single point]",
CN1CCN(CCCN2c3ccccc3Sc3ccc(S(=O)(=O)N(C)C)cc32)CC1,"23.1 µM [falling, single point]",
CCOc1ccc(C(=O)NCCc2ccccc2)cc1,"14.6 µM [falling, partial curve, poor fit]",
CCOc1ccccc1N1C(=O)CN(Cc2ccc(OC)c(OC)c2)C1=S,"17.8 µM [falling, single point]",
O=C(CNC(=O)c1cccc(N2C(=O)c3ccccc3C2=O)c1)Nc1ccc(F)c(F)c1,"2.31 µM [rising, partial curve]",
Cn1cc([N+](=O)[O-])c(C(=O)N/N=C\c2c[nH]c3ccccc23)n1,"11.2 µM [falling, single point]",
CC(=O)N(Cc1cccnc1)c1cccc(-c2nc3ccccc3s2)c1,"35.5 µM [falling, single point]",
CCOc1cc(/C=C2\C(=O)NN(c3ccccc3)C2=O)cc([N+](=O)[O-])c1O,"25.1 µM [falling, single point]",
COc1ccccc1C(NC(=O)C1CCCCC1)c1c(O)ccc2ccccc12 (centres undefined),"23.1 µM [rising, partial curve, poor fit]",
CCCOc1ccc(NC(=O)OC2CCN(C)CC2)cc1,"16.4 µM [rising, single point]",
O=c1c2ccccc2ccc2ccc(P(=O)(O)O)cc12,,"5.8 µM [rising, partial curve, poor fit]"
CN(C)c1ccnc(Oc2ccccc2)c1C#N,"8.91 µM [rising, partial curve, poor fit]",
COc1ccccc1/C=N/NC(=O)c1sc(C)nc1C,"35.5 µM [falling, single point]",

Compound,AC50 [1],AC50 [2]
Nc1ncnc(Sc2ccccc2)c1[N+](=O)[O-],"6.51 µM [falling, partial curve]",
CC(=O)Nc1ccc(S(=O)(=O)Nc2nc(C)nc3sc4c(c23)CCC4)cc1,"0.794 µM [rising, full curve, poor fit]",
Cn1ccnc1C(=O)c1cc(SCC(=O)N2CCOCC2)nc2ccccc12,"35.5 µM [rising, single point]",
O=C(Nc1ccc(S(=O)(=O)N2CCOCC2)cc1)c1ccc2ncsc2c1,"11.2 µM [falling, partial curve]",
COc1ccc(OC)c2sc(NC(=O)C3CC3)nc12,"0.58 µM [falling, full curve, poor fit]",
CCCN(CC(=O)Nc1ccccc1C)C(=O)Cc1coc2cc(C)ccc12,"14.1 µM [falling, single point]",
CCOC(=O)c1sc(NC(=O)Nc2ccccc2Cl)cc1C,"25.9 µM [falling, single point]",
Oc1ccc(-c2nnc(SCC3CCCCC3)o2)cc1,"31.6 µM [falling, single point]",
CSCCC(=O)Nc1nc(-c2ccccn2)cs1,"11.2 µM [falling, single point]",
Cc1ccc(NC(=O)CN2C(=O)S/C(=C/c3ccc(-c4cc(C(=O)O)ccc4C)o3)C2=O)cc1C,"16.4 µM [rising, partial curve, poor fit]",
CCSc1nnc(NC(=O)c2ccco2)s1,"29.1 µM [falling, single point]",
CCOc1ccc(OCCn2c(SCC(=O)O)nc3ccccc32)cc1,"7.94 µM [falling, partial curve, poor fit]",
CS(=O)(=O)Nc1ccc(N2CCCCC2)c(Cl)c1,"11.6 µM [rising, partial curve, poor fit]",
O=C(Nc1nccs1)c1cncc(Br)c1,"11.2 µM [falling, single point]",
O=C(NCc1ccccc1)N1CCN(c2ccccc2F)CC1,"16.4 µM [rising, partial curve, poor fit]",
NNC(=O)c1cc2sccc2s1,,"25.1 µM [falling, single point]"
CCc1nn(CCCC(=O)NCc2ccc(C)cc2)c(=O)c2cc3occc3n12,"15.8 µM [rising, single point]",

# As a short view, part of the list above.
Compound,AC50 [1],AC50 [2]
CCSc1nnc(NC(=O)c2ccco2)s1,"29.1 µM [falling, single point]",
CCOc1ccc(OCCn2c(SCC(=O)O)nc3ccccc32)cc1,"7.94 µM [falling, partial curve, poor fit]",
